Results are given in words; binding and its absence hold for the method and conditions named. Binding seen in cells or lysates may run through a third protein. Some binding calls cover weakened binding; strength is not graded here. Tags and fused reporters may be left off the sequences shown.
Target: T1, GST–NDRG2 (N-Myc downstream-regulated gene 2) (UniProt Q9UN36)
T1 sequence: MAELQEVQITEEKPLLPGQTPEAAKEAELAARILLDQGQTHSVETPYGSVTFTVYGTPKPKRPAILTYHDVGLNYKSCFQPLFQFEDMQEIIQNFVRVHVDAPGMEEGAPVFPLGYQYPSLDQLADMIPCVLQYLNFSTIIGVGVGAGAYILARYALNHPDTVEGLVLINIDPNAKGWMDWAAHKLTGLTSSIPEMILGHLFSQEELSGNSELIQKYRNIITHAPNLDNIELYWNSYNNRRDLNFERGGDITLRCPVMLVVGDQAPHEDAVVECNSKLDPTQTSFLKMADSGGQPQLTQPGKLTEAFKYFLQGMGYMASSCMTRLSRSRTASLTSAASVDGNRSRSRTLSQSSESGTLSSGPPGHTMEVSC
Experiment: pull-down; GST pull-down on glutathione sepharose 4B from lysates of HEK293 cells co-transfected with GST, GST–NDRG2 or NDRG2 ΔC and HA–GSK3β; 0.5% NP40, 50 mM Tris-HCl pH 8.0, 150 mM NaCl, 4 °C overnight; immunoblotting

By UniProt entry, the sequences of proteins in these tests, tags left out.
UniProt P49841: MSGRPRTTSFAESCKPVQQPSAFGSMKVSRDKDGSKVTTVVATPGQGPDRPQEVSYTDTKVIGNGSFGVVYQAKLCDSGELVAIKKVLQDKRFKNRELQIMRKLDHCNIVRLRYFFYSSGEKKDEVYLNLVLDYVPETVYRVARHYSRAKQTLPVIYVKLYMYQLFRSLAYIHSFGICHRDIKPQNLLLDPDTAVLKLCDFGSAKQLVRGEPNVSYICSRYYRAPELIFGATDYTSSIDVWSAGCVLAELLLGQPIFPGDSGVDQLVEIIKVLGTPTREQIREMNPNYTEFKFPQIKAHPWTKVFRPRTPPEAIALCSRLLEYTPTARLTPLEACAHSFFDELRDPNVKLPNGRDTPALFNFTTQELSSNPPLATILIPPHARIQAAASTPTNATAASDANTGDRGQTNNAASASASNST

binding: binds
Substance: HA–GSK3β (glycogen synthase kinase 3β) (from UniProt P49841 1-420) (enzyme)
